Measured values published in paper PMC4978974.
These are yes or no findings as the source states them, for the method shown. In cells and extracts the contact can be indirect. Some binding calls cover weakened binding; strength is not graded here.

Protein sequences, listed by entry. Tags and fused reporters are not part of them. Residues count along the entry.
UniProt P10145, residues 21-99: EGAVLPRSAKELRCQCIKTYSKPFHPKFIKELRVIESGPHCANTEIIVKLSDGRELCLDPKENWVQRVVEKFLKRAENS
UniProt P02942: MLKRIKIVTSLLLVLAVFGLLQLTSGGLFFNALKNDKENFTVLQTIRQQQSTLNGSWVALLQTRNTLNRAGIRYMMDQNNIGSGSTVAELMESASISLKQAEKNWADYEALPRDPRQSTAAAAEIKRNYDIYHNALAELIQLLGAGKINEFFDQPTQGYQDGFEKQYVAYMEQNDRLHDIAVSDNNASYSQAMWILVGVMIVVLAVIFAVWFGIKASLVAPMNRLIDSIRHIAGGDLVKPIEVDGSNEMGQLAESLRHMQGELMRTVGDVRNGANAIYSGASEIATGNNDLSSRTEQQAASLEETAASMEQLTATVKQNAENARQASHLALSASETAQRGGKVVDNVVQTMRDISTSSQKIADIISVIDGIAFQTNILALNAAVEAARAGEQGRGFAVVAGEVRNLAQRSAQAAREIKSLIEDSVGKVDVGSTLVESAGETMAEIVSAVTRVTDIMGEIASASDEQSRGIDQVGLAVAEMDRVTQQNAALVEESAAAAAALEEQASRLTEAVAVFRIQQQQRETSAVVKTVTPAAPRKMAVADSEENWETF

Molecular target: recombinant human interleukin-8 (human) (UniProt P10145)
Test: co-IP; 250 μg protein of E. coli lysate (1% Triton X-100, protease inhibitors) incubated with rhIL-8 (0.5 μg) and mouse monoclonal anti-human IL-8 antibody (1 μg) at 4 °C overnight; precipitated with Protein A/G resin; Western blot for Tsr and IL-8; only the target purified

binding: binds
Substance: Tsr chemoreceptor (methyl-accepting chemotaxis protein) of E. coli (from UniProt P02942 1-551)
